# Assay results published in the supplement of paper PMC10849652.
# Sequences of proteins named here, by UniProt entry; tags and fusion partners are left off. A change or cut given only in a name is not applied to a line headed by its entry.
# UniProt Q9GZZ9, whole entry, looked up: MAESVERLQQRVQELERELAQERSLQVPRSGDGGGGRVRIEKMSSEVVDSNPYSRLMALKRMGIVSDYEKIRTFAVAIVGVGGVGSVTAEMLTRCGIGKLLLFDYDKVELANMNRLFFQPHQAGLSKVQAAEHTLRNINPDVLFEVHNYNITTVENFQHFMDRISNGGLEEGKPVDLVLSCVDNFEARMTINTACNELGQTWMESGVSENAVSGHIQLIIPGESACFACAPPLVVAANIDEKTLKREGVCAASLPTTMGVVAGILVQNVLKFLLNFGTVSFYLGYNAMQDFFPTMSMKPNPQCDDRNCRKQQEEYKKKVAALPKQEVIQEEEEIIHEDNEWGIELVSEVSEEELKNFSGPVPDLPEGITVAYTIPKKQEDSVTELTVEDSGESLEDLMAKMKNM
# UniProt P60604: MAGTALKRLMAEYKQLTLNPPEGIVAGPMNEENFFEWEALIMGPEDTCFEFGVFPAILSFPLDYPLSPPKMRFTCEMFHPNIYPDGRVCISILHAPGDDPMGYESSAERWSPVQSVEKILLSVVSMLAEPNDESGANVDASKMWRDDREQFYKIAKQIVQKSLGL
# UniProt O94888: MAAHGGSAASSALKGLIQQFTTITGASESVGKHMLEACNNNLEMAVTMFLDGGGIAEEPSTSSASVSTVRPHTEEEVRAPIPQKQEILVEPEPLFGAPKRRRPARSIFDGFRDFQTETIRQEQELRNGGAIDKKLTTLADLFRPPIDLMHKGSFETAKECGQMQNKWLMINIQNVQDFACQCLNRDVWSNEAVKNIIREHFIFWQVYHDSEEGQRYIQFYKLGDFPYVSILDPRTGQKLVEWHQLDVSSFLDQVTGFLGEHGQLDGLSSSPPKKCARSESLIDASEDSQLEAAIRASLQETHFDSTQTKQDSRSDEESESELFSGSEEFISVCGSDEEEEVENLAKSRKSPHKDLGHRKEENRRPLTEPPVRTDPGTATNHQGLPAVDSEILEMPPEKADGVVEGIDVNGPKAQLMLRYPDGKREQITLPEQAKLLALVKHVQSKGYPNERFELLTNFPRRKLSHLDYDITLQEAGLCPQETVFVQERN
# UniProt P62256: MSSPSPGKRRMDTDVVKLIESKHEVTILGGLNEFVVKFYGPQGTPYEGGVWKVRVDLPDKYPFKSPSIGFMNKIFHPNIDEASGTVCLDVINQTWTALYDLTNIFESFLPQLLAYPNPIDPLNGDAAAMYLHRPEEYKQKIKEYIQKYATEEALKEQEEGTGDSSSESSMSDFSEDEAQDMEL
# UniProt Q5T4S7, whole entry, looked up: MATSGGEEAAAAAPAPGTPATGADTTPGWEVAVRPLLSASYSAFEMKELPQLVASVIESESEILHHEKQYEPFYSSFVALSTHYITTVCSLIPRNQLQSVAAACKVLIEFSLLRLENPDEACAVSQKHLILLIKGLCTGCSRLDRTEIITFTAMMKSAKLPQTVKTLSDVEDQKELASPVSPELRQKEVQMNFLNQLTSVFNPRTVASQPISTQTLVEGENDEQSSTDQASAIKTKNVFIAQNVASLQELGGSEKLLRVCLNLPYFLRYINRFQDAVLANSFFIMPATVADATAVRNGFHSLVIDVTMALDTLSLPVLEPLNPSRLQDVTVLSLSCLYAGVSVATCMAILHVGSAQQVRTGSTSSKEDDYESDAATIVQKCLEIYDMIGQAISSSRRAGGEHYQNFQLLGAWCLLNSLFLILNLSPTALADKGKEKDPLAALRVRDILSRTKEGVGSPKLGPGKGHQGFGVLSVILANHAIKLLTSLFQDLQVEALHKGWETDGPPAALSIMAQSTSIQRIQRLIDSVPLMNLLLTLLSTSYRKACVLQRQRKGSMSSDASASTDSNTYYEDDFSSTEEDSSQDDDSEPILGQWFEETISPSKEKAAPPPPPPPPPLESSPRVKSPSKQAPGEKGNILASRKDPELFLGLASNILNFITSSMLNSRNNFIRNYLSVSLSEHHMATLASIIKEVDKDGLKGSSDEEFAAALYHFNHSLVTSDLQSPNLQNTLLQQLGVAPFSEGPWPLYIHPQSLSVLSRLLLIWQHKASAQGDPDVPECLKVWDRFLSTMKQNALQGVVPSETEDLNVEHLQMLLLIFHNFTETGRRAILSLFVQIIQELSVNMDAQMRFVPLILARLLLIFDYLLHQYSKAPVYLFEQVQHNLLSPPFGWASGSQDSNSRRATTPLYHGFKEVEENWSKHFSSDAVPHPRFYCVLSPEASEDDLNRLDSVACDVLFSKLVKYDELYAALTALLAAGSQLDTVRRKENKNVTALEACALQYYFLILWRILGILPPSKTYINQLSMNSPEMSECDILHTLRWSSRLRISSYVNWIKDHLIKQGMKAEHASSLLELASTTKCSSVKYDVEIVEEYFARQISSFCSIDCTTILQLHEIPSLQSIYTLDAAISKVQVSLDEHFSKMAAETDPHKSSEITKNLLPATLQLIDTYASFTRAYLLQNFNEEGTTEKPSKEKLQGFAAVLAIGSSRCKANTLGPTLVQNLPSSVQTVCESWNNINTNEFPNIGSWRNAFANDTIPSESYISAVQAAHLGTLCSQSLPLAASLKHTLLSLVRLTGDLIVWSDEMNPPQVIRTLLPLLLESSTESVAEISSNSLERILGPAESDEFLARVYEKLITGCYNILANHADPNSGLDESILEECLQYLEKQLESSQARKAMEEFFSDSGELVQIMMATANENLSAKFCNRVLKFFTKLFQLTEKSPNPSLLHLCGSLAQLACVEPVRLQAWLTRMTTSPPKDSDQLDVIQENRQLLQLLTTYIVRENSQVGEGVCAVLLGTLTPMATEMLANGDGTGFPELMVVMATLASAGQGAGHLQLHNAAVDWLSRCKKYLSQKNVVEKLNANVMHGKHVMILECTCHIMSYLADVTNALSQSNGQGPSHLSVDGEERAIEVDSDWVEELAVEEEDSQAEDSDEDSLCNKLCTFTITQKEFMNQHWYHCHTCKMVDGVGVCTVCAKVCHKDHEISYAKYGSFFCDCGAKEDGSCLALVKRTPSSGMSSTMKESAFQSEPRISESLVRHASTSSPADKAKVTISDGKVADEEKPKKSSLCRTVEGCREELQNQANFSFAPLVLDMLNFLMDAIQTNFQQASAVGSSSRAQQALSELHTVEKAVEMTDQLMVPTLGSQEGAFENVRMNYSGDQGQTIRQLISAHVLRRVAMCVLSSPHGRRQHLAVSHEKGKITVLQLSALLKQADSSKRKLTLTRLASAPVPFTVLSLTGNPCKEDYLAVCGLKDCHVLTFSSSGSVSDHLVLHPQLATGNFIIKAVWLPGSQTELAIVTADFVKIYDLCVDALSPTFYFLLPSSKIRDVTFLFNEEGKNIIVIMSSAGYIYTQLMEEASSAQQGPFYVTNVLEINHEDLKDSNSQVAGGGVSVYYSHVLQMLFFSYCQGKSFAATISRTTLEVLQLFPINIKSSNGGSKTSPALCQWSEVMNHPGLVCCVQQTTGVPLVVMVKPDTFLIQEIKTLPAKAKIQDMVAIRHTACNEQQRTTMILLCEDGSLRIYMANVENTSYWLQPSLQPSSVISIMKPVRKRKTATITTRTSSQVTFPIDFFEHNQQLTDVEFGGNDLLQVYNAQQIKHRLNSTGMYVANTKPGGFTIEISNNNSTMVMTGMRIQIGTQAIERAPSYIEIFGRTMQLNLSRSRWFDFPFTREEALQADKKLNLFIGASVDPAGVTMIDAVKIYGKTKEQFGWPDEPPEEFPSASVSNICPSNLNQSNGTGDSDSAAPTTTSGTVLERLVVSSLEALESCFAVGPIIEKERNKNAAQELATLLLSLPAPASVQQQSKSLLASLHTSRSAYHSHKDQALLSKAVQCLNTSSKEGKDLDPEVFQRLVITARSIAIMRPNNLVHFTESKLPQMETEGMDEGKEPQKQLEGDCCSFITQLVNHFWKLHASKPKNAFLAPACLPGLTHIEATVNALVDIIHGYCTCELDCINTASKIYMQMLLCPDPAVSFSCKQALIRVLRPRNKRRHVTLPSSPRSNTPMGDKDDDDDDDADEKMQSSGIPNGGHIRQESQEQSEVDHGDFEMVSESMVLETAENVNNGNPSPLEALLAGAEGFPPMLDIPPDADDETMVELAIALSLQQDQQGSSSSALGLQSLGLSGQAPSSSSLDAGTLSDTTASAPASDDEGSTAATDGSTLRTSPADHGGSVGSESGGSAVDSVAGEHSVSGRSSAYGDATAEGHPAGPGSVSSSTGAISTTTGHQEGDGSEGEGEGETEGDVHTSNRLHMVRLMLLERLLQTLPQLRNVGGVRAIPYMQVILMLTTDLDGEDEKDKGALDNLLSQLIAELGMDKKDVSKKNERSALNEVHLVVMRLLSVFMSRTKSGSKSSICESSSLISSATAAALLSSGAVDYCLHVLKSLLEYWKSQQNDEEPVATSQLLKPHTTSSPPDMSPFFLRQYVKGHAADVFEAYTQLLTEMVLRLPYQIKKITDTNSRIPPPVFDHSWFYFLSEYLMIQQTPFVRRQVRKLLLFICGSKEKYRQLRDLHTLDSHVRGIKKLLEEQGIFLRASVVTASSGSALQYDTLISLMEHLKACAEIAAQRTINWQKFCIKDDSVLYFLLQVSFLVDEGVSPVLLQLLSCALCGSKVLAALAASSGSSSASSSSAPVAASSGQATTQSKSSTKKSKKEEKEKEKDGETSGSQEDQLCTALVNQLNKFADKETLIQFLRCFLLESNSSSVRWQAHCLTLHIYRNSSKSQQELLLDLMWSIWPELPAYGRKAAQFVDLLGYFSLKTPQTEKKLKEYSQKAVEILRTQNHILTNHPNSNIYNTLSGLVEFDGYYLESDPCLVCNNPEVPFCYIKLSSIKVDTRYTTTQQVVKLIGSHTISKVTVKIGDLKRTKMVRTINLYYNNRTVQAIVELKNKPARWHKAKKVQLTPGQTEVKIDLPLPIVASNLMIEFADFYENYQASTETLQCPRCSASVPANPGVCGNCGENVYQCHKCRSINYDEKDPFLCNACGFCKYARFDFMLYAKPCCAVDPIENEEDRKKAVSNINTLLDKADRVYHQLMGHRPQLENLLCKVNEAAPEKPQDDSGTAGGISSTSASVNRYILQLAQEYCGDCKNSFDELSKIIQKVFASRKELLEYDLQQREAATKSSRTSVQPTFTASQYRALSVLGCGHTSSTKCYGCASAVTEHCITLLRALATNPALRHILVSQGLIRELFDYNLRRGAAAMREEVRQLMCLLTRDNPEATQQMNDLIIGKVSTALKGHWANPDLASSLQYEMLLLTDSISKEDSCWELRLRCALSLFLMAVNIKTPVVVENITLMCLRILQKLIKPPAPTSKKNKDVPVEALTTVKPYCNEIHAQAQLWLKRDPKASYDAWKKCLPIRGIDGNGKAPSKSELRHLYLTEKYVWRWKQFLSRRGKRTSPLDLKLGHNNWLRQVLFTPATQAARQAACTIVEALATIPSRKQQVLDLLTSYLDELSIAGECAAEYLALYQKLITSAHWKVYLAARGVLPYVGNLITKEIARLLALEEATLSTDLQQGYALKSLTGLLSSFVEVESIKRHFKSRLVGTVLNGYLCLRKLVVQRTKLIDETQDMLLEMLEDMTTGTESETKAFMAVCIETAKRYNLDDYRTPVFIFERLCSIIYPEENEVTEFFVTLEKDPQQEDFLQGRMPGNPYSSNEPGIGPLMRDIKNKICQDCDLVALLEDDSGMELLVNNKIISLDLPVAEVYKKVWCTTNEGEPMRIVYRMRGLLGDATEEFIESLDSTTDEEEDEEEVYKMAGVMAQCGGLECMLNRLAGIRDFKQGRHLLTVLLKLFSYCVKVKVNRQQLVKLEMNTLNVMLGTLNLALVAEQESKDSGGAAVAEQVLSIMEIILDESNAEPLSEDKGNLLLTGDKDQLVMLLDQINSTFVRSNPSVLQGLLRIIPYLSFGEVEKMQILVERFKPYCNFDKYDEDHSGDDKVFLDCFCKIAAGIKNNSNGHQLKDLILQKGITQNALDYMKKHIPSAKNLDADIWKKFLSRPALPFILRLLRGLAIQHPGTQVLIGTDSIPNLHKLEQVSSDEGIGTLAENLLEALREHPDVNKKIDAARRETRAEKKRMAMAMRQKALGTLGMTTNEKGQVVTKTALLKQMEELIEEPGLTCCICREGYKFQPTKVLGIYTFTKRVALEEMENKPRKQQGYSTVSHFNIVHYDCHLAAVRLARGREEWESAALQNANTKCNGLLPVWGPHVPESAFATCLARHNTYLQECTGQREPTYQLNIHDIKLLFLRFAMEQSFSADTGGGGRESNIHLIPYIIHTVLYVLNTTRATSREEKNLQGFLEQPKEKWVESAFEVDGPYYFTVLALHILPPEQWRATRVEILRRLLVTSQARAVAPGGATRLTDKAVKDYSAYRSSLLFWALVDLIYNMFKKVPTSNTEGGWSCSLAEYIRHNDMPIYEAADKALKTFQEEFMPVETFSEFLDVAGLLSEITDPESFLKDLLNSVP
# Some of the results follow.
# Tests used:
# Test in all cases: log2 fold change, soluble protein after heating vs DMSO (PISA); higher = thermal stabilisation; K562 lysate, 10 uM; active = over 0.2 and 3.5 SD of the protein, either way, in both replicates (recomputed)
# [1] = compound: NCC(=O)Nc1ccc(-n2nc(C(F)(F)F)cc2-c2ccc3c(ccc4ccccc43)c2)cc1
# How it was run: (§1)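 Quantification was by TMTpro 16plex LC-MS/MS with equalised channel sums, applied to the supernatant after 21,000xg for 90 min. Samples were crude K562 extract at 1 mg/mL protein in PBS pH 7.4 with 1 mM MgCl2, treated with 10 μM compound for 30 min, heated for 3 min across 48°C-58°C, pooled and brought to 0.5% NP-40 at 4°C. Values are log-two fold changes in thermal stability relative to solvent controls, from duplicates.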
# vorinostat = compound: O=C(CCCCCCC(=O)Nc1ccccc1)NO [vorinostat]
# How it was run: as §1
# silmitasertib = compound: O=C(O)c1ccc2c(c1)nc(Nc1cccc(Cl)c1)c1ccncc12 [silmitasertib]
# How it was run: as §1
# [2] = compound: O=C1NC(=O)C(c2cnc3ccccn23)=C1c1cn2c3c(cc(F)cc13)CN(C(=O)N1CCCCC1)CC2
# How it was run: as §1
# entospletinib = compound: c1cn2cc(-c3ccc4cn[nH]c4c3)nc(Nc3ccc(N4CCOCC4)cc3)c2n1 [entospletinib]
# How it was run: as §1
Target,log2 fold change [1],log2 fold change (vorinostat),log2 fold change (silmitasertib),log2 fold change [2],log2 fold change (entospletinib)
UBA5 (UniProt Q9GZZ9),inactive: -0.023,inactive: -0.017,inactive: -0.012,inactive: 0.026,inactive: 0.006
UBE2G2 (UniProt P60604),inactive: 0.091,inactive: -0.182,inactive: -0.023,inactive: -0.01,inactive: 0.045
UBXN7 (UniProt O94888),inactive: 0.008,inactive: 0.025,inactive: 0.006,inactive: 0.017,inactive: 0
UBE2H (UniProt P62256),inactive: 0.023,inactive: 0.093,inactive: -0.003,inactive: -0.003,inactive: -0.012
UBE3B (UniProt Q7Z3V4),inactive: 0.117,active: -0.838,inactive: 0.061,inactive: 0.007,inactive: 0.115
UBR4 isoform 4 (UniProt Q5T4S7),inactive: -0.145,active: -0.792,inactive: -0.004,–,inactive: 0.205
TTN isoform 12 (UniProt Q8WZ42),inactive: 0.172,inactive: -0.003,inactive: -0.048,inactive: 0.047,inactive: 0.014
